Measurements reported in PubChem BioAssay AID504786 (Drosophila RNAi Screening Center, 2011)
The screen tested about 21,000 reagents; below is a random part of those with a known target gene and a result. 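Primary screen; positive scores mean lost reporter signal, so the sign may be inverted from the usual convention.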

- Assay: 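Knock-downs reducing HIF reporter induction by the iron chelator DFO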 (primary screen)
- Cell system: Drosophila S2 cells with a stable HIF luciferase reporter
- Reagents: long dsRNA against Drosophila genes, about 0.2 µg dsRNA per well of a 384-well plate
- Timing: three days of knock-down, then 20 h of DFO before reading
- Treatment: desferrioxamine (DFO) at 100 µM, an iron chelator that mimics hypoxia, for 20 h
- Detection: 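HIF reporter luminescence in cells given 100 µM DFO for 20 h, using the mouse ldh-a hypoxia-response element, scored as per-plate z-scores; higher means greater loss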
- Direction: z-score: higher = stronger loss of HIF reporter signal

| gene | amplicon | z-score, replicate 1 | z-score, replicate 2 | z-score, replicate 3 | z-score, replicate 4 |
| --- | --- | --- | --- | --- | --- |
| DIP-eta | DRSC02342 | -0.5 | -0.5 | – | – |
| Sp7 | DRSC15461 | -0.5 | -0.8 | – | – |
| Tes | DRSC06996 | -0.3 | -0.2 | – | – |
| Daao2 | DRSC02135 | -0.3 | -0.2 | – | – |
| CG30099 | DRSC07039 | -0.4 | -0.5 | – | – |
| SoxN | DRSC03440 | -0.3 | -0.9 | -0.3 | 2.2 |
| mav | DRSC17149 | -0.3 | -0.5 | – | – |
| CG5246 | DRSC15751 | -0.2 | -0.3 | – | – |
| mRpS18C | DRSC16538 | 0.4 | 0.3 | – | – |
| pix | DRSC10533 | 6.4 | 5.7 | – | – |
| CG14245 | DRSC14740 | -0.5 | 0.5 | – | – |
| Acyp2 | DRSC15336 | 0 | -0.5 | – | – |
| ab | DRSC03478 | 1.4 | 0.9 | – | – |

An excerpt from above, showing only “z-score, replicate 1”:
CG14245 [DRSC14740]	-0.5
Acyp2 [DRSC15336]	0
ab [DRSC03478]	1.4

The results go on.
| gene | amplicon | z-score, replicate 1 | z-score, replicate 2 | z-score, replicate 3 | z-score, replicate 4 |
| --- | --- | --- | --- | --- | --- |
| Ttc30 | DRSC01300 | -0.5 | -0.3 | – | – |
| Ttc30 | DRSC02818 | -0.2 | -0.5 | – | – |
| Mst57Dc | DRSC16745 | 0 | -0.7 | – | – |
| mAChR-C | DRSC17890 | -0.3 | -0.4 | – | – |
| Mkk4 | DRSC16739 | -0.2 | 0.6 | – | – |
| nec | DRSC06769 | -0.3 | -0.4 | – | – |
| Cpr66D | DRSC10640 | 0.7 | 0.4 | – | – |
| Cpr66D | DRSC10646 | 3.9 | 1.6 | – | – |
| MFS1 | DRSC04115 | -0.2 | 0 | – | – |
| CG34029 | DRSC03909 | 0.3 | -0.5 | – | – |
| CG17636 | DRSC20648 | -0.1 | -0.4 | – | – |
| CG1894 | DRSC15396 | -0.3 | -0.4 | – | – |
| pyr | DRSC06319 | -0.4 | -0.6 | -0.2 | 0.2 |
| dlg1 | DRSC18895 | 0.7 | 1.2 | – | – |
| dlg1 | DRSC18896 | -0.1 | -0.4 | – | – |
| dlg1 | DRSC19767 | -0.4 | -0.4 | – | – |
| dlg1 | DRSC20324 | -0.2 | -0.4 | – | – |
| CG3894 | DRSC01762 | -0.2 | -0.1 | – | – |
| CG3894 | DRSC04012 | 0 | -0.1 | – | – |
| CG3894 | DRSC04429 | 0.4 | -0.3 | – | – |
| Fs(2)Ket | DRSC03328 | 3.7 | 3.9 | – | – |
